What all share (experiment): co-IP; lysate of HEK293T cells transfected with a Myc-tagged TLR ECD incubated with 80 ng purified V5-tagged AaNRP at 4 °C, precipitated with anti-Myc tag antibody (magnetic beads), five washes with IP lysis buffer, blots for V5 and Myc; only the binder purified
Experiment [1] deals with T1, human plasma membrane TLR1 extracellular domain (human) (UniProt Q15399).
T1 sequence: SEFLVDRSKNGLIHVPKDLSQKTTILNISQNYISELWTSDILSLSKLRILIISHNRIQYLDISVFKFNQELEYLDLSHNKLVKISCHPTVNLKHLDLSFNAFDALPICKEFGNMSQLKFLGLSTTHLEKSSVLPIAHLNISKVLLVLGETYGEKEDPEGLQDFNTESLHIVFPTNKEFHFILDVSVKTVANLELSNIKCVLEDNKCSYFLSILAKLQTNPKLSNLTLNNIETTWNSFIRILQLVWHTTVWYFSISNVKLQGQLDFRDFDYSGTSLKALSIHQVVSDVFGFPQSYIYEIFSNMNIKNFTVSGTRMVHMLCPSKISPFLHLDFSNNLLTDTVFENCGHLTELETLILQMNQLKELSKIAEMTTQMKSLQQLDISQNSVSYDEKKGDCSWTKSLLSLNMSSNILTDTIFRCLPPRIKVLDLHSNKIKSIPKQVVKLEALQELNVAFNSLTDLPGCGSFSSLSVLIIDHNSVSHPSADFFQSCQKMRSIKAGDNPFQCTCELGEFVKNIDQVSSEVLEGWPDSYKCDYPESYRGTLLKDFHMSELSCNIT

By UniProt entry, the sequences of proteins in these tests, tags left out. Where a name states a change or a piece, a line headed by the entry shows the natural chain unless it says otherwise. Residues count along the entry.
UniProt O00206, residues 24-631: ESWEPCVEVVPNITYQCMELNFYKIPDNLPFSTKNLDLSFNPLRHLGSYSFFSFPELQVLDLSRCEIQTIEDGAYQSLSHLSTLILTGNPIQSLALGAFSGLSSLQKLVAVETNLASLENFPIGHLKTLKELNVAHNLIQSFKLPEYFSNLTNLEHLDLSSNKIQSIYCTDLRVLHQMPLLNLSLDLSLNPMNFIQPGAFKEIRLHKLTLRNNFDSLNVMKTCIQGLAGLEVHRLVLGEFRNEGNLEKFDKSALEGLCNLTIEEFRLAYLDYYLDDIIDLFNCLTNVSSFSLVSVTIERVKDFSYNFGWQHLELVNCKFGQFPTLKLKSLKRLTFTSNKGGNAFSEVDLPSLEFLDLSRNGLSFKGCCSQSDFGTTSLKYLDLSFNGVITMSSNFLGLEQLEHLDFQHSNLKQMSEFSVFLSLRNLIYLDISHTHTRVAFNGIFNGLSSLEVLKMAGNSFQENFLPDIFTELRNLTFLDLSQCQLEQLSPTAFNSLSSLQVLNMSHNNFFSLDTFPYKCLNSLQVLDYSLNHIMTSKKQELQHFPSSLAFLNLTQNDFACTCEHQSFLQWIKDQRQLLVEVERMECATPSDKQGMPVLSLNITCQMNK
UniProt O60603, residues 21-588: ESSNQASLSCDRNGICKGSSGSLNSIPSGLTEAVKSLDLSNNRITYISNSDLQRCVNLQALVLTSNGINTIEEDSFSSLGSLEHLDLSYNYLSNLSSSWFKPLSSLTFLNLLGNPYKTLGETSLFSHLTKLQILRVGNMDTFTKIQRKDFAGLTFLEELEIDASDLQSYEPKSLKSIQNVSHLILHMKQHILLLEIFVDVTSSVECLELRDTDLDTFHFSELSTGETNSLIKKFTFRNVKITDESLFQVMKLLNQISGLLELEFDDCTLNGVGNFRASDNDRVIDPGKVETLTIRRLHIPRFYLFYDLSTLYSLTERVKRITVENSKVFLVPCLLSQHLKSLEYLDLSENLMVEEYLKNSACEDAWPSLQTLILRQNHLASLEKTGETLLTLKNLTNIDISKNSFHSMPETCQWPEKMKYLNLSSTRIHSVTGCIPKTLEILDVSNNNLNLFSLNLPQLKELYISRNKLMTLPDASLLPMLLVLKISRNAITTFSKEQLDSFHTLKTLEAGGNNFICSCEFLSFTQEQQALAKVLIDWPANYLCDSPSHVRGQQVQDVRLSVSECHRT
UniProt Q172F2: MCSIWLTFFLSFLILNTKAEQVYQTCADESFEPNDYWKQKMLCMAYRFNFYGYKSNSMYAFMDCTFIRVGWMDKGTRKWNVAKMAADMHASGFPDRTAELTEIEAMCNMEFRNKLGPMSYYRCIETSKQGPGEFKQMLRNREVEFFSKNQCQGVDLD

Experiment [2] deals with human TLR4 extracellular domain (human) (UniProt O00206).
Experiment [3] concerns the target T2, human TLR6 extracellular domain (human) (UniProt Q9Y2C9).
T2 sequence: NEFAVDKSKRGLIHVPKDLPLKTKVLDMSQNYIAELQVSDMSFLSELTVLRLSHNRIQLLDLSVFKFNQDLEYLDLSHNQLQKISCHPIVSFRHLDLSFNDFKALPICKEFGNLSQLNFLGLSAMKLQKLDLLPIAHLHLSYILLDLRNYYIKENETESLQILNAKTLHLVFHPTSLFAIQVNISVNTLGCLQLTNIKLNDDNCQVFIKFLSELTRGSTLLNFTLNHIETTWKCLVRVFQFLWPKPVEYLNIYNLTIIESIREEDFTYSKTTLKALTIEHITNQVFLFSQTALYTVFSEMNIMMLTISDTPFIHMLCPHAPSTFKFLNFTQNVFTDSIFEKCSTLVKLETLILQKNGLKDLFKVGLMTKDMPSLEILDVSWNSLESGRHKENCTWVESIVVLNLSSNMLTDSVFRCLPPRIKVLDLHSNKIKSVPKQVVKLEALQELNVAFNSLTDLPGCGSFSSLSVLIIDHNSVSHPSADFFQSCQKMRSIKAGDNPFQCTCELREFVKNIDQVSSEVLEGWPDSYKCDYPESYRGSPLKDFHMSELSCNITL

Experiment [4] addresses T3, murine Toll-like receptor 12 extracellular domain (mouse) (UniProt Q6QNU9).
T3 sequence: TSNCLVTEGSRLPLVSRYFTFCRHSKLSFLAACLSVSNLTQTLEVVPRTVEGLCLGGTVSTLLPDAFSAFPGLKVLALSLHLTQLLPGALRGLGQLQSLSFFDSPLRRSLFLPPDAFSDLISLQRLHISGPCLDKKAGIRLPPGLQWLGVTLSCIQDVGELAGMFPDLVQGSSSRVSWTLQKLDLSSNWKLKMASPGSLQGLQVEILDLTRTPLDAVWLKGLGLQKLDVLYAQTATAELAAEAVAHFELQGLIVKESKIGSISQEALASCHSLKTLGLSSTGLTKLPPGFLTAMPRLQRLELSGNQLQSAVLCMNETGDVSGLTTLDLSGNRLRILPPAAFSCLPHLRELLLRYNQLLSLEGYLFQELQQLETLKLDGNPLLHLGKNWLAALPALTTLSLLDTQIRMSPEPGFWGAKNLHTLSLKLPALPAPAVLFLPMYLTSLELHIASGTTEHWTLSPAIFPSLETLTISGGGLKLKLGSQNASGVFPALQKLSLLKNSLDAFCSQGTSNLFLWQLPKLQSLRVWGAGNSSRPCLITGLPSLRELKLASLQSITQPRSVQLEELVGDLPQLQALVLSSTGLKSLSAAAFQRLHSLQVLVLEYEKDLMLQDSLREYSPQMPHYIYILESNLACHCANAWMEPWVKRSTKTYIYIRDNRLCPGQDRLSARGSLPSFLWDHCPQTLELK

Experiment [5] has as its target human TLR2 extracellular domain (human) (UniProt O60603).

Results are given in words; binding and its absence hold for the method and conditions named. Binding seen in cells or lysates may run through a third protein. For some assays here: A result given as binding can be weak or reduced; the word gives no strength.

“A. aegypti Neutrophil Recruitment Protein (AaNRP) (from UniProt Q172F2)”: the binding entry in experiment [1] is listed as “binds”; in experiment [2], “binds”; in experiment [3], “no binding (tested: 80 ng of purified AaNRP)”; in experiment [4], “no binding (tested: 80 ng of purified AaNRP)”; in experiment [5], “no binding (tested: 80 ng of purified AaNRP)”.

The record behind these values is PMC11066113.
